The values that follow come from PMC7819943, “Rice protein-binding microarrays: a tool to detect cis-acting elements near promoter regions in rice”.

The chains behind the UniProt entries cited, without tags or fusion partners.
UniProt Q0JBA9, entry or part of it: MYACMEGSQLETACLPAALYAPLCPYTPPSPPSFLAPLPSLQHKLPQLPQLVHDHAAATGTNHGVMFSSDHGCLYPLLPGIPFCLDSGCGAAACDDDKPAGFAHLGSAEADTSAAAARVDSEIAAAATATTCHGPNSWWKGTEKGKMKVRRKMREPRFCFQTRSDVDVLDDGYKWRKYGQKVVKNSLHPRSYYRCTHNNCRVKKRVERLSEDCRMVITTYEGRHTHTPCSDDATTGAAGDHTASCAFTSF

The other results are listed elsewhere or left out.

The target in the test is OsWRKY34 (Oryza sativa, UniProt Q0JBA9 1-250). The test can be described thus: protein-binding microarray (RPBM); PBS, 2% BSA, 51.3 ng/ul salmon testes DNA, 50 uM zinc acetate, 200 nM TF, 25 C, 1 h; high values mean tight binding. The following applies: protein: recombinant; tags: N-terminal polyhistidine and DsRed monomer fusion (pET32a); label: CyDye5-dUTP incorporated in the synthesized complementary strand; 3' TTTTT single-stranded linker to array surface; dsDNA, one strand shown. The method in brief:
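Binding signal is reported as fluorescence intensity per feature (arbitrary units) from an Axon 4000B scanner. Incubation used 200 nM of each Ni–NTA-purified, N-terminally polyhistidine- and DsRed-fused transcription factor from E. coli BL21-CodonPlus on a double-stranded custom Agilent array for 1 h at 25 °C, with 50 µM zinc acetate in the buffer, followed by washing.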
Take “AATATGTTGAATTCTGTGATCTGCTCATCGATTGGTTTTTCGGAGTCACCTAGTGCAG”: the binding signal is 11000 fluorescence intensity (a.u.).
Next, “ACTGTGATTTGTTTGTGTTGAAGTATTGTTTGCTCTAATGCGGAGTCACCTAGTGCAG”: 10700 fluorescence intensity (a.u.).
Next, “TCTCGCCGCCGCCTGCGCTTTCCCCTCGCGCTGCCACCTCCGGAGTCACCTAGTGCAG”: 9320 fluorescence intensity (a.u.); “TGATTGACATCTCCTGCTTGGTTTATCAGCGCTTTGCTCTCGGAGTCACCTAGTGCAG”: 10400 fluorescence intensity (a.u.); “AATTCGAGGCACTTCTGCTCACCCAACCCAACCCAACCTCCGGAGTCACCTAGTGCAG”: 9330 fluorescence intensity (a.u.).
Next, “ATTAGCATGTCCAAATTGTTCAGATACCCAACTTATGAATCGGAGTCACCTAGTGCAG”: 8910 fluorescence intensity (a.u.); “GTTGACCCATGTCACCACCCTAGCCACCCAATCGACCTTCCGGAGTCACCTAGTGCAG”: 8240 fluorescence intensity (a.u.); “GCTCCCTTCTATACCTCTCAGTTTTACCGTTGATCCCTTCCGGAGTCACCTAGTGCAG”: 8750 fluorescence intensity (a.u.).
Turning to “CCCGCCGTTTCGCCCCAAAATTCCGTTCCCGTCCACCTCCCGGAGTCACCTAGTGCAG”, the binding signal was 10700 fluorescence intensity (a.u.).
With “GCAAGGACCTCCGTAAAGTCCACAAGTATACTCTTCGATCCGGAGTCACCTAGTGCAG” the figure was 8110 fluorescence intensity (a.u.).
With “CACAACCTGCTGCACTGCATTACCATCCATCTCTTCTTCTCGGAGTCACCTAGTGCAG” the figure was 12900 fluorescence intensity (a.u.).
Next, “TTCCGCTCCAGTCTCCACCGCACCCGCCCACCCGCGCGCCCGGAGTCACCTAGTGCAG”: 9350 fluorescence intensity (a.u.); “TTTCGCATTTATCGCGCTTGTATTTATTCTCTAATGACATCGGAGTCACCTAGTGCAG”: 9030 fluorescence intensity (a.u.).
Regarding “CAGCACCGAAACGGCATTTTCGTCCTCGATGTTCGTCCTCCGGAGTCACCTAGTGCAG”, the binding signal is 8810 fluorescence intensity (a.u.).
Next, “TTCTGGGCTGTGTGGGTTGGAATTCCTGGGGAATTTAACTCGGAGTCACCTAGTGCAG”: 8290 fluorescence intensity (a.u.); “AGGCTGTTTTCTTAAGTCCACTTTTCCAACTTCAACTCACCGGAGTCACCTAGTGCAG”: 10200 fluorescence intensity (a.u.).
“GATCATAACTAATTGCCTACATGCATACATACCTTATATTCGGAGTCACCTAGTGCAG”: the binding signal is 8030 fluorescence intensity (a.u.).
Next, “CAAGACACTCTTCTGTTCCGTCACGGCGACTGTAACACCCCGGAGTCACCTAGTGCAG”: 8320 fluorescence intensity (a.u.); “CACACGCAGCTCACAAAAGACCGGTTCCACACTTCCACGACGGAGTCACCTAGTGCAG”: 8640 fluorescence intensity (a.u.).
Next, “CTACTCATCTCTTTCACATGGTCTATTAGAGCTCTAGTATCGGAGTCACCTAGTGCAG”: 10100 fluorescence intensity (a.u.); “AACTGCCAGTTTTGTCTCTCCTGCCGTCGTTTTGTTTACGCGGAGTCACCTAGTGCAG”: 9140 fluorescence intensity (a.u.).
In the case of “GGGCTGGATCCACCAATTTAGATTTGAGCTCAACATGAACCGGAGTCACCTAGTGCAG”, the binding signal is 8520 fluorescence intensity (a.u.).
Next, “GGTATCTGTTGCTGCTTGCTGGTTCTCGTGCTATTGTTCTCGGAGTCACCTAGTGCAG”: 19900 fluorescence intensity (a.u.); “CAAACCTCGCGCCGCACTGCCGCCGCCGCCAAAGCCGCAACGGAGTCACCTAGTGCAG”: 9170 fluorescence intensity (a.u.).
As for “CGGGCTTTTTTCTCTTGAACTCGGTTAAATGTTCGGCGATCGGAGTCACCTAGTGCAG”, the binding signal is 8210 fluorescence intensity (a.u.).
Next, “CGTGTCCACCATTTCCGTTTGGTTTTACTCCACTAATAAGCGGAGTCACCTAGTGCAG”: 10500 fluorescence intensity (a.u.).
With “CCGCCGCCGCTCGCCGCCGCATTGCGTTACTCGAGCTCGCCGGAGTCACCTAGTGCAG” the figure was 8710 fluorescence intensity (a.u.).
With “CTGACTTTATCACACGTCTACGATTTGCCACTGACTTTATCGGAGTCACCTAGTGCAG” the figure was 9790 fluorescence intensity (a.u.); with “TCCCGCTGCTTGGAGTCTGTTTTTAGCCGCCGTAGTTTCTCGGAGTCACCTAGTGCAG”, 10700 fluorescence intensity (a.u.); with “ACACTCTTTCTTACTCCTGATGCTCTTTCTTGATATAACCCGGAGTCACCTAGTGCAG”, 9340 fluorescence intensity (a.u.).
As for “AGTAGCAGCGGCGGCGGCGGAGGGAGGGGAGGTGAACCAGCGGAGTCACCTAGTGCAG”, the binding signal is 9420 fluorescence intensity (a.u.).
With “GGGGTATGAAATGTTTTTTTTTTCCTTTACGTTTCTTTTTCGGAGTCACCTAGTGCAG” the figure was 15400 fluorescence intensity (a.u.); with “CCCTACGACGCCTACGACTGCCAGATCACATACATGGACCCGGAGTCACCTAGTGCAG”, 9600 fluorescence intensity (a.u.).
With “ACTTTTTAAAACATATTTGACCGTTCTTCTTATTAAAAAACGGAGTCACCTAGTGCAG” the figure was 8850 fluorescence intensity (a.u.); with “AGTCATCTTCAGCTTTTGATTCACAACATCTTCATTCTGACGGAGTCACCTAGTGCAG”, 8630 fluorescence intensity (a.u.); with “TGGTGTTGGTTCTAAAATTTAAACATTGTGACTTTCCTTACGGAGTCACCTAGTGCAG”, 11200 fluorescence intensity (a.u.).
Next, “TCAACCTCGCCTACAACAACCTCACCGGTGCCGTGCCATCCGGAGTCACCTAGTGCAG”: 8540 fluorescence intensity (a.u.); “CGTGCGGGCTCTACCAATCCACACCACACCACCCTATAAACGGAGTCACCTAGTGCAG”: 9780 fluorescence intensity (a.u.); “CTGTTGCTGTCGCCGGATCGCCTTTTGCCCTCCCGTACTTCGGAGTCACCTAGTGCAG”: 8570 fluorescence intensity (a.u.).
Regarding “ATGCCTGCTCCTAGTGTATCGTTGGGATCTAGCTTGTTCTCGGAGTCACCTAGTGCAG”, the binding signal was 8920 fluorescence intensity (a.u.).
With “TTGGCTTTCCTTTCTTCCGATCCAAGCTACTCTCTCTCTCCGGAGTCACCTAGTGCAG” the figure was 8220 fluorescence intensity (a.u.).
Next, “GTTTGTATGTGATTTTGTAATGCTGAATATATGCTCTTTCCGGAGTCACCTAGTGCAG”: 11000 fluorescence intensity (a.u.).
